No constants are given. Whether binding was seen depends on the method and setting. In cells and extracts the contact can be indirect. A result given as binding can be weak or reduced; the word gives no strength. Where a sequence is shown, tags or fusion partners need not be part of it.

For assay [1], the target named is T1, GNL1-Myc (Arabidopsis thaliana) (UniProt Q9FLY5).
T1 sequence: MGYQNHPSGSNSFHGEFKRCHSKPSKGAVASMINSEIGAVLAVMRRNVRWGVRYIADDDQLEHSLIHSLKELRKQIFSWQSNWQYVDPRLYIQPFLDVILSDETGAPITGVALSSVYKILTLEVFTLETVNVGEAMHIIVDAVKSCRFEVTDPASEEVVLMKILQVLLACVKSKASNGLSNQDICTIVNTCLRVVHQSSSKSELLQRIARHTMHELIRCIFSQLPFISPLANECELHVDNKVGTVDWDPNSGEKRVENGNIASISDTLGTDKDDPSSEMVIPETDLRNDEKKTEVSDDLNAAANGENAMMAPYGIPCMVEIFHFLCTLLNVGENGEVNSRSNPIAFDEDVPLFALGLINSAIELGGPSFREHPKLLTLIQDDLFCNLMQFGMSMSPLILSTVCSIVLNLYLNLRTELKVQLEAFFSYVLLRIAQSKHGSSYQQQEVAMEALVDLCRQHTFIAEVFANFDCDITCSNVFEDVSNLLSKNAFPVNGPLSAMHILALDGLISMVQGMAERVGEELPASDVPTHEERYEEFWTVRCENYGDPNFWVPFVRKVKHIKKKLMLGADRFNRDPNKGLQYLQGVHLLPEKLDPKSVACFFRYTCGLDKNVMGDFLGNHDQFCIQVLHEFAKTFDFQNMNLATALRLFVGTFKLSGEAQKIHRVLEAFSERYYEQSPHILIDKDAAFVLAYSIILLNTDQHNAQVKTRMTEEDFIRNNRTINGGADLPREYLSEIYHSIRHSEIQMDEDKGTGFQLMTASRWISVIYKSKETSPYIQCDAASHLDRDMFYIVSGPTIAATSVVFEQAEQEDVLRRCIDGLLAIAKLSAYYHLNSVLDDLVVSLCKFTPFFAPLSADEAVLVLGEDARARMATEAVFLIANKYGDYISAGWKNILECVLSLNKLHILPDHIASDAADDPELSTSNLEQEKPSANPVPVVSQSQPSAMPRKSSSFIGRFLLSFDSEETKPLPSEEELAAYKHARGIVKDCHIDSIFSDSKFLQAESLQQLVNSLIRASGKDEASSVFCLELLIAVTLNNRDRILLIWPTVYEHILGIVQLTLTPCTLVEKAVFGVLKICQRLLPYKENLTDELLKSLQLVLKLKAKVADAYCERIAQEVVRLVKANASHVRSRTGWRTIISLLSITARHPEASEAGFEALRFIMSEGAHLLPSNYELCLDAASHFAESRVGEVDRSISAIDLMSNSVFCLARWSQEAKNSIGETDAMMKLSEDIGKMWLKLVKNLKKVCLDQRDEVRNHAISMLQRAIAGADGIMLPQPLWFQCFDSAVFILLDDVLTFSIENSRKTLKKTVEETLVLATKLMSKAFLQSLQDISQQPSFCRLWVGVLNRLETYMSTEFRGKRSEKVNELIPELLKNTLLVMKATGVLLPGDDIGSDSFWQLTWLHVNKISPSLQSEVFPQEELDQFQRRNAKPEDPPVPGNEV
Nature of the assay: co-IP; protein extracts of 5-6 days old Arabidopsis seedlings expressing differently tagged ARFs and ARF-GEFs; lysis buffer 50mM Tris pH 7.5, 150mM NaCl, 2mM EDTA, 1% Triton X-100; alpha-Myc-agarose, GFP-Trap or RFP-Trap beads, 2.5-3h in the cold room; immunoblot; in some experiments with BFA (50 uM); T31N and Q71L forms induced with 20 uM estradiol for 6h.

Assay [2] has as its target T2, GNL2-GFP (GN::GNL2-GFP) (Arabidopsis thaliana) (UniProt F4K2K3).
T2 sequence: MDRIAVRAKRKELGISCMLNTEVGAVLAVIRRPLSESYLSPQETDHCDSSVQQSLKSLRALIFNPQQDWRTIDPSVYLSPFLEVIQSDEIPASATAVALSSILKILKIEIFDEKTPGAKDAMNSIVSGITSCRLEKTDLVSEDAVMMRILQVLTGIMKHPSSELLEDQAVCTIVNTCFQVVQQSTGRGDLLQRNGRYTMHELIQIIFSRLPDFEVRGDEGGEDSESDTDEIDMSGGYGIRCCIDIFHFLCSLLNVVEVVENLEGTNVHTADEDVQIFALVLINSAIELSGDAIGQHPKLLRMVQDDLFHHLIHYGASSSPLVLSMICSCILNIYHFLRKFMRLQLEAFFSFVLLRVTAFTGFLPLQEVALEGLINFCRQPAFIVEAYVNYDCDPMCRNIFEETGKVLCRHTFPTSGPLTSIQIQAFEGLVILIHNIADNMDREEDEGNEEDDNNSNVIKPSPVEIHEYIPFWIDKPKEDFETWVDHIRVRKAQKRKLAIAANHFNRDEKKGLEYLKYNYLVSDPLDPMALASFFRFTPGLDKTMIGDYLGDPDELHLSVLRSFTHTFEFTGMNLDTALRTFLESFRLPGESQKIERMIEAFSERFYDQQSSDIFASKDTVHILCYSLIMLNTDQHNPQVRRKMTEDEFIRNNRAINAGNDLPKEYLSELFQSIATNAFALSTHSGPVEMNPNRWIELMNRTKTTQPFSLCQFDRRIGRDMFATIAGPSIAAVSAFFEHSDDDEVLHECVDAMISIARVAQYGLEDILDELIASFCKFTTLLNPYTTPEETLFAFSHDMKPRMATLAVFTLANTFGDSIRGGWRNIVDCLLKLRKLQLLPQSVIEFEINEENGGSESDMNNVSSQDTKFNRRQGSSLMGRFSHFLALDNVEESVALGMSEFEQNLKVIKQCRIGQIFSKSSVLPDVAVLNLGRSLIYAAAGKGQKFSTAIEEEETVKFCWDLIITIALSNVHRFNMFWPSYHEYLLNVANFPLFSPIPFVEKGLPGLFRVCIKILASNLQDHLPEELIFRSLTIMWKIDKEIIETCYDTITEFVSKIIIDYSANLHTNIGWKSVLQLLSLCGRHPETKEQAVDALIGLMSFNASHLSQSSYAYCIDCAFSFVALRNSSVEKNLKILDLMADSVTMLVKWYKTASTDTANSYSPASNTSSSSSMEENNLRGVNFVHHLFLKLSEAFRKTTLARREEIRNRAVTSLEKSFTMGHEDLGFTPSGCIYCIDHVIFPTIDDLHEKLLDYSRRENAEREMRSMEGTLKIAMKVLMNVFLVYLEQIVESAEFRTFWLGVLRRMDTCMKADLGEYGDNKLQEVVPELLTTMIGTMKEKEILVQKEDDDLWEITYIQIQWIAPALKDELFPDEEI
The assay is described as above.

For “ARFA-YFP (ARFB1b-YFP) (Arabidopsis thaliana)”, the binding result in assay [1] is reported as “no binding”.
On to endogenous ARF1, for which the binding entry in assay [2] and in assay [1] was “binds” in each case.

For the origin of these results see paper PMC6264874, “A single class of ARF GTPase activated by several pathway-specific ARF-GEFs regulates essential membrane traffic in Arabidopsis” (PLoS Genetics, 2018).
